Measured values as given in patent US20230276792A1, “SELECTIVE HERBICIDES BASED ON SUBSTITUTED ISOXAZOLIN CARBOXAMIDES AND CLOQUINTOCET-MEXYL” (Bayer Aktiengesellschaft, priority 2020, published 2023).

Tested on: spring wheat, TRZAS Triso
Assay: Safener seed treatment, post-emergence herbicide application, crop damage
Format: in vivo
Conditions: cloquintocet-mexyl 0, 5 g a.i./kg seed
Excerpt: For safener seed treatment trials, sufficient seed amounts of the respective crops (spring wheat (TRZAS); spring barley (HORVS)) were weighed into screw cap glass bottles with a minimum volume trice of the seeds.
As a first step, specified safeners formulated as wettable powder (WP) or wettable granules (WG) were weighed out for the required dosages (g a.i./kg seed), corresponding to the seed amounts. The safener amounts were mixed with a coloured slurry blind formulation type, pre-diluted with milk at 3.5% fat rate (25 mgs slurry formulation plus 2 ml milk per 10 grams of seed). A tube roller was used for coating. The solutions were gradually pipetted each on the rotating seeds followed by coating for min. 3 hours until all liquid had been soaked up by the seeds. Thereafter, the coated seeds were put flat on open trays for drying over night at room temperature.
Treated seeds were then placed into pots (7 cm diameter) on the surface of sandy loam, pressed down, flat covered with additional soil and finally covered with sandy soil, also pressed down, watered, and kept under good growth conditions in a greenhouse, until the plants had reached 2-leaf-stage (BBCH 12).
At that stage, post-emergence application of the specified herbicides was done on: • a) pot sets containing plants with safener-coated seeds as described above, • b) as a reference, pot sets of plants without seed treatment.
The herbicides were formulated as wettable powder (WP). Equivalent to the spray area, compound amounts were weighed out and diluted related to the water application rate (300 l/ha) to an aqueous suspension plus additive (1 l/ha MERO). Dosage related equivalents were conventionally sprayed on trays with the potted plants.
After application, the test plants were kept under good growth conditions in a greenhouse. Assessment timings were 10 and 21 days after treatment (DAT) with the herbicide, by visual scoring of the crop damage in % (comparison of untreated with treated plants, either sprayed only with herbicide or with herbicide on plants with treated seeds).
Reduction [Difference]=herbicide damage without safener−herbicide damage with safener
Reduction [%]=(Reduction [Difference]*100)/herbicide damage without safener
b) Plant Species, Variety: TRZAS Triso, Safener (SAF): Cloquintocet-Mexyl

[1] = 21 DAT, HER dose 1, 5 g a.i./ha

CC1(C(=O)NC2C=CC(C(=O)OCCCl)C2)CC(c2cc(F)cc(F)c2)=NO1 (mixture of isomers) [Example 1.47]
Reduction [Difference] (21 DAT, HER dose 4 g a.i./ha): 20 | Reduction [Difference] (21 DAT, HER dose 16 g a.i./ha): 70

C=CC1(C(=O)NC2CC=C(C(=O)OC)C2)CC(c2cc(F)cc(F)c2)=NO1 (mixture of isomers) [Example 1.60]
Reduction [Difference] (21 DAT, HER dose 8 g a.i./ha): 83 | Reduction [Difference] (21 DAT, HER dose 32 g a.i./ha): 85

CC1(C(=O)NC2CC=C(C(=O)NS(C)(=O)=O)C2)CC(c2cc(F)cc(F)c2)=NO1 (mixture of isomers) [Example 1.61]
Reduction [Difference] (10 DAT, HER dose 8 g a.i./ha): 50 | Reduction [Difference] (10 DAT, HER dose 32 g a.i./ha): 50

C=CC1(C(=O)NC2COC(C(=O)OCCOC)C2)CC(c2cc(C)cc(F)c2)=NO1 (mixture of isomers) [Example 1.65]
Reduction [Difference] (10 DAT, HER dose 8 g a.i./ha): 20

CCOC(=O)C1CC(NC(=O)C2(C)CC(c3cccc(F)c3)=NO2)CO1 (mixture of isomers) [Example 1.67]
Reduction [Difference] (10 DAT, HER dose 4 g a.i./ha): 40 | Reduction [Difference] (10 DAT, HER dose 16 g a.i./ha): 50

C=CC1(C(=O)NC2COC(C(=O)OC)C2)CC(c2cc(F)cc(F)c2)=NO1 (mixture of isomers) [Example 1.68]
Reduction [Difference] (21 DAT, HER dose 1 g a.i./ha): 60 | Reduction [Difference] (21 DAT, HER dose 4 g a.i./ha): 55

C=CC1(C(=O)NC2COC(C(=O)OC)C2)CC(c2cc(C)cc(F)c2)=NO1 (mixture of isomers) [Example 1.71]
Reduction [Difference] (10 DAT, HER dose 8 g a.i./ha): 50 | Reduction [Difference] (10 DAT, HER dose 32 g a.i./ha): 85

COC(=O)C1CC(NC(=O)C2(OC)CC(c3cc(F)cc(F)c3)=NO2)CO1 (mixture of isomers) [Example 1.72]
Reduction [Difference] (21 DAT, HER dose 32 g a.i./ha): 50

CC(C)OC(=O)C1CC(NC(=O)C2(C)CC(c3cccc(F)c3)=NO2)CO1 (mixture of isomers) [Example 1.78]
Reduction [Difference] (10 DAT, HER dose 1, 5 g a.i./ha): 20 | Reduction [Difference] (10 DAT, HER dose 6 g a.i./ha): 70 | Reduction [Difference] (10 DAT, HER dose 24 g a.i./ha): 60

CC1(C(=O)NC2COC(C(=O)OCc3ccccc3)C2)CC(c2cccc(F)c2)=NO1 (mixture of isomers) [Example 1.79]
Reduction [Difference] (10 DAT, HER dose 6 g a.i./ha): 30 | Reduction [Difference] (10 DAT, HER dose 24 g a.i./ha): 40

CC(C)OC(=O)C1CC(NC(=O)C2(C(C)(F)F)CC(c3cc(F)cc(F)c3)=NO2)CO1 (mixture of isomers) [Example 1.88]
Reduction [Difference] (21 DAT, HER dose 2 g a.i./ha): 50 | Reduction [Difference] (21 DAT, HER dose 8 g a.i./ha): 65

COC(=O)C1COCC1NC(=O)C1(C)CC(c2cc(F)cc(F)c2)=NO1 (mixture of isomers) [Example 1.93]
Reduction [Difference] (21 DAT, HER dose 2 g a.i./ha): 85 | Reduction [Difference] (21 DAT, HER dose 8 g a.i./ha): 83 | Reduction [Difference] (21 DAT, HER dose 32 g a.i./ha): 85

COC(=O)C1(C)CC(NC(=O)C2(C(C)(F)F)CC(c3cc(F)cc(F)c3)=NO2)CO1 (mixture of isomers) [Example 1.94]
Reduction [Difference] [1]: 20 | Reduction [Difference] (21 DAT, HER dose 6 g a.i./ha): 75 | Reduction [Difference] (21 DAT, HER dose 24 g a.i./ha): 65

COCCOC(=O)C1C=CC(NC(=O)C2(C(F)(F)F)CC(c3cc(F)cc(C#N)c3)=NO2)C1 (centres unmarked) [Example 1.2]
Reduction [Difference] (10 DAT, HER dose 8 g a.i./ha): 90 | Reduction [Difference] (10 DAT, HER dose 32 g a.i./ha): 80

COCCOC(=O)C1C=CC(NC(=O)C2(C)CC(c3cc(Cl)cc(C#N)c3)=NO2)C1 (centres unmarked) [Example 1.5]
Reduction [Difference] (21 DAT, HER dose 8 g a.i./ha): 80 | Reduction [Difference] (21 DAT, HER dose 32 g a.i./ha): 65

CSCCOC(=O)C1C=CC(NC(=O)C2(C(F)(F)F)CC(c3cc(F)cc(F)c3)=NO2)C1 (centres unmarked) [Example 1.7]
Reduction [Difference] (10 DAT, HER dose 2 g a.i./ha): 50 | Reduction [Difference] (10 DAT, HER dose 8 g a.i./ha): 63 | Reduction [Difference] (10 DAT, HER dose 32 g a.i./ha): 43

COC(=O)C1C=CC(NC(=O)C2(C)CC(c3cccc(F)c3)=NO2)C1 (centres unmarked) [Example 1.20]
Reduction [Difference] (10 DAT, HER dose 8 g a.i./ha): 20 | Reduction [Difference] (10 DAT, HER dose 32 g a.i./ha): 50

C=CC1(C(=O)NC2C=CC(C(=O)OC)C2)CC(c2cc(F)cc(F)c2)=NO1 (centres unmarked) [Example 1.26]
Reduction [Difference] (21 DAT, HER dose 2 g a.i./ha): 80 | Reduction [Difference] (21 DAT, HER dose 8 g a.i./ha): 63

CC1(C(=O)NC2C=CC(C(=O)O)C2)CC(c2cc(F)cc(F)c2)=NO1 (centres unmarked) [Example 1.36]
Reduction [Difference] (21 DAT, HER dose 1 g a.i./ha): 85 | Reduction [Difference] (21 DAT, HER dose 4 g a.i./ha): 33 | Reduction [Difference] (21 DAT, HER dose 16 g a.i./ha): 25

C=CC1(C(=O)NC2C=CC(C(=O)O)C2)CC(c2cc(F)cc(F)c2)=NO1 (centres unmarked) [Example 1.58]
Reduction [Difference] (21 DAT, HER dose 2 g a.i./ha): 85 | Reduction [Difference] (21 DAT, HER dose 8 g a.i./ha): 83 | Reduction [Difference] (21 DAT, HER dose 32 g a.i./ha): 73

C=CC1(C(=O)NC2C=C(C(=O)OCC#N)OC2)CC(c2cc(F)cc(F)c2)=NO1 (centres unmarked) [Example 1.91]
Reduction [Difference] [1]: 50 | Reduction [Difference] (21 DAT, HER dose 6 g a.i./ha): 60 | Reduction [Difference] (21 DAT, HER dose 24 g a.i./ha): 60
